At least one structure is not confirmed: it was looked up by name or label, or the drawing left a doubt.
Test system: interferon signaling (phosphorylated Stat1)
Assay: Stat1 phosphorylation / interferon signaling in cells after infection with modified Herpes Simplex Virus
Assay type: cell-based
Conditions: HSV lacking lytic phase gene ICPO; FIG. 7B

With `CS(=O)(=O)n1cc(NC(=O)c2c(Cl)cccc2Cl)c(C(=O)NC2CCNCC2)n1` [Compound 2, 4-(2,6-dichlorobenzamido)-1-(methylsulfonyl)-N-(piperidin-4-yl)-1H-pyrazole-3-carboxamide] the “inhibition of interferon signaling (Stat1 phosphorylation) after HSV infection” value was “inhibits interferon signaling”.

Source: patent publication US20260193229A1, “BRISC DEUBIQUITINATING ENZYME INHIBITORS” (THE TRUSTEES OF THE UNIVERSITY OF PENNSYLVANIA, priority 2022, published 2026)
